Data as given in PubChem BioAssay AID743121 (NCATS, 2013)
Aim: 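Partners whose loss is lethal together with topoisomerase I blockade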 (primary screen). System: MDA-MB-231 cells, a human breast cancer line. Reagents: single siRNA against human genes, 20 nM siRNA (0.8 pmol per well). Timing: 120 h (drug added 48 h after transfection, read 72 h later). Treatment: camptothecin 20 nM (about EC30) for 72 h; vehicle 0.1% DMSO in parallel plates. Read-out: 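Cell viability by ATP luminescence (CellTiter-Glo) as % of non-targeting siRNA wells, and the log2 ratio of viability without drug over viability with camptothecin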. Reading the numbers: log2 vehicle/camptothecin viability: higher = stronger sensitisation to camptothecin. Active means: 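Each gene scored by redundant siRNA activity (RSA) over its individual siRNA ratios; a gene is called active at p < 0.001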.
The deposit covers about 26,000 reagents; this is a random part of them. 167 of all reagents (0.63%) count as active. 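Calls are per gene from RSA p-values that are not deposited; an individual active-marked siRNA can sensitise only weakly.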 A number with no mark means an inactive call. The numbers tell different reagents against one gene apart. Further read-outs or replicates are left out here.

Target gene | siRNA no. | log2 vehicle/camptothecin viability
FOS | 1 | 0.218
FOS | 2 | -0.32
FOS | 3 | 0.0214
FOS | 4 | 0.019
CARD14 | 1 | -0.393
CARD14 | 2 | 0.181
CARD14 | 3 | -0.323
CARD14 | 4 | -0.343
RIOX2 | 1 | -0.558
RIOX2 | 2 | -0.239
RIOX2 | 3 | -0.134
RIOX2 | 4 | 0.0831
CRABP2 | 1 | -0.207
CRABP2 | 2 | -0.489
CRABP2 | 3 | -0.102
CRABP2 | 4 | -0.0778
CA4 | 1 | -0.233
CA4 | 2 | -0.0691
CA4 | 3 | -0.00851
MRC2 | 1 | -0.301
MRC2 | 2 | -0.215
MRC2 | 3 | -0.155
COL5A1 | 1 | -0.677
COL5A1 | 2 | -0.268
COL5A1 | 3 | 0.0301
COL5A1 | 4 | -0.0465
ALPK1 | 1 | -0.129
ALPK1 | 2 | 0.233
ALPK1 | 3 | -0.452
ALPK1 | 4 | 0.0819
PLCE1 | 1 | -0.259
PLCE1 | 2 | -0.262
PLCE1 | 3 | -0.494
PLCE1 | 4 | -0.123
PRKAR2A | 1 | -0.281
PRKAR2A | 2 | -0.263
PRKAR2A | 3 | -0.407
PRKAR2A | 4 | -0.0954
NME7 | 1 | 0.124
NME7 | 2 | -0.353
NME7 | 3 | -0.362
NME7 | 4 | -0.691
MMP27 | 1 | 0.122
MMP27 | 2 | -0.19
MMP27 | 3 | -0.485
IPO5 | 1 | -0.191
IPO5 | 2 | 0.113
IPO5 | 3 | 0.0687
IPO5 | 4 | 0.0292
RNF34 | 1 | 0.136
RNF34 | 2 | -0.127
RNF34 | 3 | 0.0343
RNF34 | 4 | 1.08
SLC5A5 | 1 | -0.583
SLC5A5 | 2 | -0.368
SLC5A5 | 3 | -0.0298
JAKMIP1 | 1 | -0.0996
JAKMIP1 | 2 | 0.336
JAKMIP1 | 3 | -0.35
JAKMIP1 | 4 | -0.735
JAKMIP1 | 5 | -0.372
C2orf42 | 1 | -0.363
C2orf42 | 2 | -0.197
C2orf42 | 3 | -0.158
C2orf42 | 4 | 0.183
EFNB1 | 1 | 0.376
EFNB1 | 2 | -0.0429
EFNB1 | 3 | -0.224
EFNB1 | 4 | -0.181

Part of the list above, set out differently.
| Target gene | siRNA no. | log2 vehicle/camptothecin viability |
| --- | --- | --- |
| PLCE1 | 3 | -0.494 |
| PLCE1 | 4 | -0.123 |
| PRKAR2A | 1 | -0.281 |
| PRKAR2A | 2 | -0.263 |
| PRKAR2A | 3 | -0.407 |
| PRKAR2A | 4 | -0.0954 |
| NME7 | 1 | 0.124 |
| NME7 | 2 | -0.353 |
